# Library screen at single concentrations

Data taken from ChEMBL document CHEMBL3988442, “University of Dundee, Small-Polar-MMV Screening Library” (2021).

Mtb cholesterol medium: 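Phenotypic screen: M. tuberculosis growth, cholesterol and DPPC medium, 4 days; the read-out is not stated. Tested at 50 µM. Direction is inferred from retests: higher values go with more growth inhibition. Of about 69,000 compounds tested this way, about 370 (0.54%) reached 50% or more in at least one test.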
Mtb glucose medium: 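Growth of Mycobacterium tuberculosis over 3 days (7H9 medium with glucose and tyloxapol); the read-out is not stated. Tested at 50 µM. Direction is inferred from retests: higher values go with more growth inhibition. Size under these conditions: about 69,000 compounds, about 760 of them at 50% or above in at least one test.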

The filed quantity is “Percent Effect” (%). How 0% and 100% were set is not recorded. Most values in the screen are low, and negative values occur. The compounds are a random part of those screened. Two or more numbers in one place are separate tests of the same structure; such repeats can differ widely.

Cn1cc(C2CCCN2C(=O)CCCOCc2ccccc2)cn1 (centres undefined) read Mtb cholesterol medium: 11.38%; Mtb glucose medium: 26.34%. For Cc1cc(C)n(C(=O)Cn2nc(C)c(I)c2C)n1 the result was Mtb cholesterol medium: -23.45%; Mtb glucose medium: 1.302%. CC(C)COC(C)C(=O)N1CCCC1 (centres undefined) gave Mtb cholesterol medium: -1.8%; Mtb glucose medium: 1.578%. CCn1cnnc1CNC(=O)NCC(c1cccs1)N1CCCC1 (centres undefined) gave Mtb cholesterol medium: -3.004%; Mtb glucose medium: 25.31%. Result for O=C(O)C(F)(F)F.[H][C@@]12CCN(Cc3ccc(OC)cc3)[C@@]1([H])CC(=O)N2CCOC was Mtb cholesterol medium: 4.598%; Mtb glucose medium: 11.46%. For CCn1ncc(CNC(=O)c2cn(CCC3CCCCN3)nn2)c1C (centres undefined) the result was Mtb cholesterol medium: -18.49% and 0.437%; Mtb glucose medium: -24.01%. O=C(NCC1CC1)C1CN(C(=O)c2ccnnc2)CC12CCOCC2 (centres undefined) gave Mtb cholesterol medium: -40.57% and -7.134%; Mtb glucose medium: -4.789% and -3.367%.

Cn1ccnc1C1CCN(CCC2CCOC2)CC1 (centres undefined) gave Mtb cholesterol medium: 9.878%; Mtb glucose medium: 6.615%. Result for COc1ncccc1CNCc1c(C(C)C)nn(C)c1OC was Mtb cholesterol medium: -7.575%; Mtb glucose medium: -0.9756%. For O=C(O)C(F)(F)F.[H][C@@]12CCN(c3nncs3)C[C@@]1([H])O[C@@H](C(=O)NCc1ccco1)C2 the result was Mtb cholesterol medium: 0.7636%; Mtb glucose medium: 10.81%. With [H][C@]12CCC[C@@H](CN3CCCC3)[C@@]1([H])CN(c1ncccn1)C2 the screen gave Mtb cholesterol medium: -6.862%; Mtb glucose medium: 17.77%. [H][C@@]12C[C@@H](OCC3CC3)CN1CCN(S(=O)(=O)c1cccs1)C2 gave Mtb cholesterol medium: -27.13%; Mtb glucose medium: -21.11%. Result for Cc1ccc(N2CCC3(CCN(C(=O)c4ccccn4)CC3)CC2)nn1.O=C(O)C(F)(F)F.O=C(O)C(F)(F)F was Mtb cholesterol medium: -9.207%; Mtb glucose medium: 4.431%. For COCCCn1ccc(NC(=O)NCCCNc2ccccc2)n1 the result was Mtb cholesterol medium: 24.12%; Mtb glucose medium: 6.216%.

With CC(C)C(C)NC(=O)Nc1ccc(CS(=O)(=O)C(C)C)cc1 (centres undefined) the screen gave Mtb cholesterol medium: -19.84%; Mtb glucose medium: 0.7289%. COC(=O)c1cccc(NC(=O)CCn2nc(-c3cccs3)oc2=O)c1 gave Mtb cholesterol medium: -4.997%; Mtb glucose medium: -27.58%. With CN(C)C(=O)CS(=O)(=O)Cc1cc(Cl)c2c(c1)OCCO2 the screen gave Mtb cholesterol medium: 1.582%; Mtb glucose medium: -1.445%. Cc1ccc(-n2ccnc2)c(C(=O)NCCOCC2CCCO2)c1 (centres undefined) read Mtb cholesterol medium: 1.14%; Mtb glucose medium: 13.81%. With CN1CCC(c2nnc3ccc(C(=O)N4CCCCC4)cn23)C1.O=C(O)C(F)(F)F (centres undefined) the screen gave Mtb cholesterol medium: 5.567%; Mtb glucose medium: 14.21%. With Cc1ccc(Oc2ncccc2CNC(=O)C2COC(=O)N2)c(F)c1F (centres undefined) the screen gave Mtb cholesterol medium: 6.491%; Mtb glucose medium: 23.49%. Result for Cc1cccc(-n2ncc3c2CCCC3NCc2cnn(C)c2C)c1C (centres undefined) was Mtb cholesterol medium: -4.019%; Mtb glucose medium: -12.32%.

For COc1c(C2CCCN2Cc2nc(-c3ccco3)no2)c(C)nn1C (centres undefined) the result was Mtb cholesterol medium: 7.056%; Mtb glucose medium: 9.64% and 20%. With CC(=O)NC1CCCN(C(=O)c2ccc(Br)cc2O)C1 (centres undefined) the screen gave Mtb cholesterol medium: 5.463%; Mtb glucose medium: -25.98%. With COc1ccccc1OCC(=O)NCC(O)(c1ccccc1)C1CC1 (centres undefined) the screen gave Mtb cholesterol medium: -11.67%; Mtb glucose medium: 1.192% and 7.736%. With CCn1cnnc1C1CCN(C(=O)c2ccccc2F)CC1 the screen gave Mtb cholesterol medium: -1.864%; Mtb glucose medium: 18.97%. O=C(CCNS(=O)(=O)c1cccnc1)N1CCCCC1 gave Mtb cholesterol medium: -14.92%; Mtb glucose medium: 11.38% and -1.966%. Result for COc1cccc(CN(C)C(C)c2ccon2)c1OCCn1ccnc1 (centres undefined) was Mtb cholesterol medium: 0.5963%; Mtb glucose medium: -22.45%. With Cc1nc(CC(=O)NS(=O)(=O)c2cccc3cnccc23)cs1 the screen gave Mtb cholesterol medium: -12.92%; Mtb glucose medium: -4.061%.

Result for CC(C)c1noc(C(C)N2CCC(c3nc4ccccc4[nH]3)CC2)n1 (centres undefined) was Mtb cholesterol medium: -14.66%; Mtb glucose medium: -14.91% and 7.765%. CN(C)c1nc(O)cc(C2CCN(C(=O)Cc3ccccn3)C2)n1 (centres undefined) read Mtb cholesterol medium: 1.572%; Mtb glucose medium: 2.902%. CCc1nnc(CN2CCc3[nH]c(-c4ccc(OC)cc4)nc3C2)o1 read Mtb cholesterol medium: 5.68%; Mtb glucose medium: -6.006% and 3.819%. For COCCN1C(=O)CCC12CCN(C(=O)CNC(C)=O)CC2 the result was Mtb cholesterol medium: -5.066% and -5.913%; Mtb glucose medium: -3.15%. Result for CCc1cccc(N2CCC(NC(=O)c3cc[nH]n3)CC2)c1 was Mtb cholesterol medium: -37.49%; Mtb glucose medium: -24.11%. Result for Cc1cc(N2C[C@H](NC(=O)C3(C#N)CCOCC3)[C@@H](C(C)C)C2)ccn1 was Mtb cholesterol medium: -6.261%; Mtb glucose medium: 11.42%. With CN(C)c1cc(CNC(=O)c2ccccc2S(C)(=O)=O)ccn1 the screen gave Mtb cholesterol medium: -16.03%; Mtb glucose medium: -17.49%.

For O=C(NCCSC1CCCC1)c1ccc(F)cc1F the result was Mtb cholesterol medium: 0.3195% and -1.919%; Mtb glucose medium: 3.597%. With Cc1ncc(CN2CCc3nc4cc(C(C)(C)C)nn4c(O)c3C2)n1C the screen gave Mtb cholesterol medium: -18.05%; Mtb glucose medium: -4.88%. For COCCN1CC2(CCN(C(=O)c3ccno3)CC2)c2ccccc21.O=C(O)C(F)(F)F the result was Mtb cholesterol medium: -22.36%; Mtb glucose medium: -37.59%. O=C(O)C1(Cc2cc(-c3cccc(F)c3)no2)CCOCC1 read Mtb cholesterol medium: -25.38%; Mtb glucose medium: -24.86%. O=C(O)C(F)(F)F.O=C(O)C(F)(F)F.[H][C@@]12CN(CCOC)C[C@]1([H])[C@@H](OC)CCN2Cc1ccc(C)o1 read Mtb cholesterol medium: 3.721%; Mtb glucose medium: -5.428%. COc1cc(COCC2CCN(Cc3cccnc3)CC2)cc(OC)c1.O=C(O)C(=O)O read Mtb cholesterol medium: -5.528%; Mtb glucose medium: -1.499%. CCc1nc(C(=O)N2CCCC2)nn1-c1c(Cl)cccc1Cl read Mtb cholesterol medium: -11.58%; Mtb glucose medium: 3.925%.

With [H][C@@]12COC[C@]1(c1nnc(C3CC3)o1)CN(C(=O)C(C)(C)C)C2 the screen gave Mtb cholesterol medium: 0.7358%; Mtb glucose medium: 13.26% and -0.9846%.

For reference, 5 entries once more:

{"structure": "O=C(O)C1(Cc2cc(-c3cccc(F)c3)no2)CCOCC1", "Mtb cholesterol medium": -25.38, "Mtb glucose medium": -24.86}
{"structure": "Cn1cc(C2CCCN2C(=O)CCCOCc2ccccc2)cn1", "stereo": "centres undefined", "Mtb cholesterol medium": 11.38, "Mtb glucose medium": 26.34}
{"structure": "COc1ccccc1OCC(=O)NCC(O)(c1ccccc1)C1CC1", "stereo": "centres undefined", "Mtb cholesterol medium": -11.67, "Mtb glucose medium": "1.192 and 7.736"}
{"structure": "[H][C@]12CCC[C@@H](CN3CCCC3)[C@@]1([H])CN(c1ncccn1)C2", "Mtb cholesterol medium": -6.862, "Mtb glucose medium": 17.77}
{"structure": "COCCCn1ccc(NC(=O)NCCCNc2ccccc2)n1", "Mtb cholesterol medium": 24.12, "Mtb glucose medium": 6.216}